From PubChem BioAssay AID1671190 (National Center for Advancing Translational Sciences (NCATS), 2021)
Where “and” joins values, the source holds several entries; their conditions need not be identical. Equal entries are not always repeated. The campaign covered roughly 580,000 compounds. About 6,100 (1.1%) were called active. Inconclusive means that the source gave no clear call. Such entries were picked first, then a sample of the others. Calls follow the shape of the dose curve; as a rule, active = well fitted inhibition curve with a large enough effect; inconclusive = small, poorly fitted or top-dose-only effect, or another doubt; inactive = no such curve, though single readings can be large or run the other way. Where the call is inconclusive, the potency comes from a doubtful curve fit. Square brackets hold non-standard residues; d marks the D form. Peptide text beside a SMILES is read from it. ξ: configuration not given here. ξM = CSCCC(N)C(=O)O

Sequences of proteins named here, by UniProt entry; tags and fusion partners are left off.
UniProt P18054, whole entry, looked up: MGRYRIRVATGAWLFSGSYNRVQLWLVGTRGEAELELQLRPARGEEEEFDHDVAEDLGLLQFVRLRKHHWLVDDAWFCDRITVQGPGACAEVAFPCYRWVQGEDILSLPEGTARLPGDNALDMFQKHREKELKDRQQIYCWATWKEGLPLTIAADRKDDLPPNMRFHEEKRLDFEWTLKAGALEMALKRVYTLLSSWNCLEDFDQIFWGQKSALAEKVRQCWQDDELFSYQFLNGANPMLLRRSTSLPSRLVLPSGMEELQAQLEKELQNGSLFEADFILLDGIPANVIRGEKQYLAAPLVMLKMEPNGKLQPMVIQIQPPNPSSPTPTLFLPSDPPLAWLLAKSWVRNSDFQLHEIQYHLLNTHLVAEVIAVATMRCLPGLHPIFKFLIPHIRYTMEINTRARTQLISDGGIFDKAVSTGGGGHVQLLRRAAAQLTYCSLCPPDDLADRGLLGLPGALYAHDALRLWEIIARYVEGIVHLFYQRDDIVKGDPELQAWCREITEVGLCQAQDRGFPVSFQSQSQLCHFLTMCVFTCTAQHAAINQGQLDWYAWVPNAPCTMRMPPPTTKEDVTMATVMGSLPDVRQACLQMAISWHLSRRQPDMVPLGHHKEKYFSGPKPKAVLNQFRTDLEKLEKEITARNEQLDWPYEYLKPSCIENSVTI

biological target: Polyunsaturated fatty acid lipoxygenase ALOX12 (Homo sapiens) (UniProt P18054); test: Primary qHTS assay for inhibitors of human arachidonate 12S-lipoxygenase (ALOX12): Round 2; details: purified 12hLO, xylenol orange hydroperoxide absorbance; series mostly up to 108 µM
Outline: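 Purified human 12hLO (150 nM final) in 25 mM Hepes, 0.01% Triton X-100, pH 7.0 was preincubated 15 min at room temperature with compound. Then 40 uM arachidonic acid was added, 30 min. Hydroperoxide was read by Fe-XO absorbance ratio 573/405 nm.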
Potency is read from the fitted curve at half-maximal effect.

**Q.** `NS(=O)(=O)c1ccc(CCNCc2cc(Br)ccc2OCc2ccccc2F)cc1` was tested. Which Potency did it give?
**A.** Its Potency is inconclusive: 39.8 µM [inhibitor, partial curve, poor fit].

**Q.** Which Potency does the source give for `Cc1ccc(/C=N/n2c(C)nc3ccccc3c2=O)o1` here?
**A.** The Potency was “inactive”.

**Q.** For `COc1ccc(C2=NOC3(CCN(Cc4ccc(F)cc4)C3)C2)cc1` (stereo not given), which Potency is on record?
**A.** The Potency was “inactive”.

**Q.** With `N#CC1(NC(=O)CN2C(=O)c3ccccc3C2=O)CCCCC1` as the molecule, how does the Potency read?
**A.** The Potency was “inactive”.

**Q.** How did the Potency turn out when `Cn1cccc1CN1CCC2(CC1)Cc1ccccc1NC2=O` was run?
**A.** Its Potency is “inactive”.

**Q.** `O=C1OCC2(CCN(Cc3ccc(Cl)cc3)C2)N1Cc1ccccn1` (stereo not given) was tested. Which Potency did it give?
**A.** The Potency was inconclusive: 112 µM [inhibitor, partial curve].

**Q.** Which Potency does the source give for `CCCC/C(C)=N/NC(=S)Nc1ccccc1` here?
**A.** Its Potency is active: 6.31 µM.

**Q.** How did the Potency turn out when `COc1ccc(-n2c(C)cc(C3=NNC(=NC4CC4)SC3)c2C)cc1` was run?
**A.** Its Potency is inconclusive: 50.1 µM [inhibitor, partial curve, poor fit].

**Q.** `Cc1cccc(N2CCN(C(=O)C3CCN(c4ncnc5c4nc4n5CCCCC4)CC3)CC2C)c1` (stereo not given) was tested. Which Potency did it give?
**A.** The Potency was “inactive”.

**Q.** Which Potency does the source give for `CCc1cnc2c(c1SC(C)CC)c(=O)n(C)c(=O)n2C` (stereo not given) here?
**A.** Its Potency is inconclusive: 39.8 µM [inhibitor, partial curve, poor fit].

**Q.** Which Potency does the source give for `CCN(CC)C(=O)C(Sc1nnc(-c2ccc(Cl)cc2Cl)n1N)c1ccccc1` (stereo not given) here?
**A.** The Potency was inconclusive: 44.7 µM [inhibitor, partial curve, poor fit].

**Q.** With `C/C=C/C=C/C(=O)NC(C)c1ccc(F)cc1F` (stereo not given) as the molecule, how does the Potency read?
**A.** Its Potency is inconclusive: 70.8 µM [inhibitor, single point].

**Q.** How did the Potency turn out when `Cn1nnnc1SCCCNCc1cccc(OCc2ccc(F)cc2)c1` was run?
**A.** The Potency was inconclusive: 0.251 µM [inhibitor, full curve, poor fit].

**Q.** For `NC(=O)[C@H]1CC2(CC(c3cccc(NC(=O)COc4ccc(Cl)cc4)c3)=NO2)CN1C(=O)CC(c1ccccc1)c1ccccc1` (stereo not given in full), which Potency is on record?
**A.** The Potency was inconclusive: 31.6 µM [inhibitor, partial curve].

**Q.** For `Cc1nnsc1-c1c(C(=O)O)c(C)nn1-c1ccc(OC(F)(F)F)cc1`, which Potency is on record?
**A.** The Potency was “inactive”.

**Q.** How did the Potency turn out when `Nc1ccc(-c2cc3ccccc3c(=O)o2)cc1` was run?
**A.** The Potency was “inactive”.

**Q.** `COc1ccc(OCCN(C)C(=O)c2ccc3ccccc3n2)cc1` was tested. Which Potency did it give?
**A.** Its Potency is “inactive”.

**Q.** For `COc1ccc(/C=N/n2c(-c3n[nH]c4c3CCC4)n[nH]c2=S)c(OC)c1OC`, which Potency is on record?
**A.** Its Potency is inconclusive: 35.5 µM [inhibitor, partial curve, poor fit].

**Q.** With `Cc1ccc2nc3n(c2c1)[C@@H](CNCc1ccc2c(c1)OCO2)COC3` as the molecule, how does the Potency read?
**A.** Its Potency is “inactive”.

**Q.** How did the Potency turn out when `Nc1nc(-c2cccs2)c(-c2cccs2)s1` was run?
**A.** Its Potency is inconclusive: 35.5 µM [inhibitor, single point].

**Q.** How did the Potency turn out when `COc1ccc(CCN2Cc3cc(NC(=O)c4ccc(OC)cc4)ccc3OC(C)C2=O)cc1` (stereo not given) was run?
**A.** Its Potency is “inactive”.

**Q.** With `COc1ccccc1CNC(=O)CSc1nc(-c2cccs2)nc2ccccc12` as the molecule, how does the Potency read?
**A.** The Potency was inconclusive: 50.1 µM [inhibitor, partial curve, poor fit].

**Q.** For `CCN(CC)C(=S)SCC(=O)c1ccc(F)cc1`, which Potency is on record?
**A.** The Potency was inconclusive: 1 µM [inhibitor, full curve, poor fit].

**Q.** With `CCCCn1c(=O)nc2n(-c3ccc(Br)cc3)c3ccccc3cc-2c1=O` as the molecule, how does the Potency read?
**A.** The Potency was inconclusive: 89.1 µM [inhibitor, single point].

**Q.** How did the Potency turn out when `NC(=O)C1(N2CCCCC2)CCN(c2nc(-c3ccc(Br)cc3)cs2)CC1` was run?
**A.** Its Potency is “inactive”.

**Q.** `CCN(CC)CCNCc1cc(Br)ccc1OCC(=O)NCc1ccccc1` was tested. Which Potency did it give?
**A.** The Potency was active: 28.2 µM.

**Q.** With `COc1ccc(CC(=O)NCc2nnc(SCC(=O)c3ccc(Cl)cc3Cl)n2C)cc1` as the molecule, how does the Potency read?
**A.** The Potency was inconclusive: 50.1 µM [inhibitor, single point].

**Q.** Which Potency does the source give for `COc1ccc(C2C(C(=O)c3cccs3)=C(O)C(=O)N2Cc2cccnc2)cc1OC` (stereo not given) here?
**A.** The Potency was inconclusive: 3.98 µM [inhibitor, full curve, poor fit].

**Q.** Which Potency does the source give for `COC(=O)CNC(=O)C(CCSC)NC(C)=O` (stereo not given) (Ac-[ξM]-Gly-OMe) here?
**A.** Its Potency is inconclusive: 141 µM [inhibitor, single point].

**Q.** With `C[n+]1ccccc1/C=C/c1ccc(F)c(F)c1` as the molecule, how does the Potency read?
**A.** Its Potency is inconclusive: 39.8 µM [inhibitor, partial curve].

**Q.** For `CCOC(=O)[C@]12Cc3c(cc(OC)c(OC)c3OC)[C@H]1N(Cc1ccccc1)C(=O)c1cc(OC)ccc12`, which Potency is on record?
**A.** The Potency was “inactive”.

**Q.** `COCCCn1c(-c2ccccc2)nc2ccccc2c1=O` was tested. Which Potency did it give?
**A.** Its Potency is “inactive”.

**Q.** `CCN(CC)C(=O)C1=C(C)N(Cc2ccc(OC)cc2)C(=O)C(CC(=O)NC2CCCC2)C1` (stereo not given) was tested. Which Potency did it give?
**A.** Its Potency is inconclusive: 28.2 µM [inhibitor, partial curve, poor fit].

**Q.** With `CCn1c(CSCc2c(Cl)cccc2Cl)n[nH]c1=S` as the molecule, how does the Potency read?
**A.** The Potency was inconclusive: 50.1 µM [inhibitor, partial curve, poor fit].

**Q.** `Cc1cc(C)cc(N2C(N)=NC(N)=NC2c2cccc(Cl)c2)c1` (stereo not given) was tested. Which Potency did it give?
**A.** Its Potency is inconclusive: 100 µM [inhibitor, single point].

**Q.** Which Potency does the source give for `CCCCCc1cc(=O)[nH]c(=S)[nH]1` here?
**A.** Its Potency is inconclusive: 50.1 µM [inhibitor, partial curve, poor fit].

**Q.** Which Potency does the source give for `O=C(Cc1c(Cl)cccc1Cl)N1CCN(c2ccccc2O)CC1` here?
**A.** The Potency was inconclusive: 39.8 µM [inhibitor, partial curve].

**Q.** With `O=C(NCc1cccs1)C(=O)NCC(c1ccco1)N1CCN(c2ccc(F)cc2)CC1` (stereo not given) as the molecule, how does the Potency read?
**A.** Its Potency is “inactive”.

**Q.** `CCc1ccc(C2CC(=O)N3CN(c4ccccc4)CSC3=C2C#N)cc1` (stereo not given) was tested. Which Potency did it give?
**A.** The Potency was inconclusive: 31.6 µM [inhibitor, partial curve, poor fit].

**Q.** How did the Potency turn out when `CN1CCN(c2ncnc3ccc(-c4cccnc4)cc23)CC1` was run?
**A.** The Potency was “inactive”.

**Q.** With `CC1CCCN(CCCNC(=O)Cn2ncc3c([nH]c4ccccc43)c2=O)C1` (stereo not given) as the molecule, how does the Potency read?
**A.** Its Potency is inconclusive: 112 µM [inhibitor, partial curve, poor fit].

**Q.** With `Nc1nn(-c2ccccc2)nc1C(=O)OCc1ccccc1` as the molecule, how does the Potency read?
**A.** Its Potency is inconclusive: 141 µM [inhibitor, partial curve, poor fit].

**Q.** Which Potency does the source give for `N#CC(=C1Nc2ccccc2N1)S(=O)(=O)c1ccccc1` here?
**A.** Its Potency is inconclusive: 126 µM [inhibitor, single point].

**Q.** With `O=C(O)C1C2CCC(O2)C1C(=O)Nc1cccc(Cl)c1` (stereo not given) as the molecule, how does the Potency read?
**A.** The Potency was inconclusive: 50.1 µM [inhibitor, partial curve, poor fit].

**Q.** For `O=C(NCc1ccco1)c1cccc2c1C(=O)N(C1CCCCC1)C2`, which Potency is on record?
**A.** The Potency was inconclusive: 7.08 µM [inhibitor, full curve, poor fit].

**Q.** With `CCCC(=O)NC(=S)Nc1ccc(S(=O)(=O)Nc2ccc(OCC)cc2)cc1` as the molecule, how does the Potency read?
**A.** Its Potency is inconclusive: 39.8 µM [inhibitor, partial curve].

**Q.** Which Potency does the source give for `CCOc1ccc(CCN2C(=O)C(=O)N([C@@H](CC(C)C)CN3CCC[C@@H]3CN3C(=O)C(=O)NC[C@@H]3Cc3ccccc3)C[C@@H]2Cc2ccc(O)cc2)cc1` here?
**A.** The Potency was inconclusive: 50.1 µM [inhibitor, partial curve, poor fit].

**Q.** How did the Potency turn out when `Cc1cc(/C=N/NC(=O)C(O)(c2ccccc2)c2ccccc2)c(C)n1-c1cccc(C(=O)O)c1` was run?
**A.** Its Potency is inconclusive: 22.4 µM [inhibitor, partial curve, poor fit].

**Q.** For `O=c1c2ccccc2oc2c1oc1ccccc12`, which Potency is on record?
**A.** Its Potency is inconclusive: 141 µM [inhibitor, single point].

**Q.** With `N[C@@H](Cc1cc(I)c(Oc2cc(I)c(O)c(I)c2)c(I)c1)C(=O)O` as the molecule, how does the Potency read?
**A.** Its Potency is inconclusive: 112 µM [inhibitor, single point] and inconclusive: 31.6 µM [inhibitor, single point].

**Q.** `CCOc1ccc(N2C(=O)CC(Sc3ccccc3C(=O)O)C2=O)c([N+](=O)[O-])c1` (stereo not given) was tested. Which Potency did it give?
**A.** The Potency was inconclusive: 44.7 µM [inhibitor, partial curve, poor fit].

**Q.** For `Cc1ccc(S(=O)(=O)N2CCN(Cc3nc4ccc(C)cc4o3)CC2)c(C)c1`, which Potency is on record?
**A.** Its Potency is inconclusive: 70.8 µM [inhibitor, partial curve, poor fit].

**Q.** `CCc1ccccc1-n1nnc(-c2nsc(NC(=O)c3ccc(C)c(C)c3)n2)c1C` was tested. Which Potency did it give?
**A.** The Potency was “inactive”.

**Q.** Which Potency does the source give for `Cc1c(CC(=O)O)c(=O)oc2c(C)c(OCc3nn[nH]n3)ccc12` here?
**A.** Its Potency is inconclusive: 2.82 µM [inhibitor, partial curve, poor fit].

**Q.** For `NC(=O)CSc1nc2ccccc2n1Cc1ccccc1F`, which Potency is on record?
**A.** The Potency was “inactive”.

**Q.** With `CC(C)(C)Cc1c(-c2cccc(Br)c2)nc2ccc(Cl)cn12` as the molecule, how does the Potency read?
**A.** The Potency was inconclusive: 8.91 µM [inhibitor, partial curve, poor fit].

**Q.** `O=C1OC[C@@H]2CCCN2C(=O)[C@@H](CC(=O)N(CCO)Cc2ccccc2)C/C=C\C[C@H]1Cc1ccc(F)cc1` was tested. Which Potency did it give?
**A.** Its Potency is “inactive”.

**Q.** For `CCOC(=O)c1c(C)[nH]c(C)c1S(=O)(=O)N(C)CC(=O)Nc1ccc(C)cc1Br`, which Potency is on record?
**A.** The Potency was inconclusive: 63.1 µM [inhibitor, partial curve, poor fit].

**Q.** `Cc1oc(-c2ccc(Cl)cc2)nc1CN1CCCC(C(=O)NCc2ccccc2)C1` (stereo not given) was tested. Which Potency did it give?
**A.** The Potency was inconclusive: 126 µM [inhibitor, partial curve, poor fit].

**Q.** For `C/C(=C\C(=O)c1ccc(Br)cc1)NNC(=O)c1ccccc1`, which Potency is on record?
**A.** The Potency was inconclusive: 79.4 µM [inhibitor, partial curve, poor fit].

**Q.** Which Potency does the source give for `CS(=O)(=O)N1CCN(C(C(=O)O)c2c[nH]c3ccc(Cl)cc23)CC1` (stereo not given) here?
**A.** Its Potency is “inactive”.

**Q.** For `C[C@H](CO)N1C[C@H](C)[C@@H](CN(C)S(=O)(=O)c2ccccc2)Oc2c(NC(=O)NC3CCCCC3)cccc2C1=O`, which Potency is on record?
**A.** Its Potency is “inactive”.

**Q.** Which Potency does the source give for `COc1cc(/C=C/c2nc(C#N)c(NCc3ccc4c(c3)OCO4)o2)cc(OC)c1OC` here?
**A.** Its Potency is “inactive”.

**Q.** With `Cc1ccc(S(=O)(=O)C(CC(=O)c2ccc(Cl)cc2)C(=O)c2ccc(Cl)cc2)cc1` (stereo not given) as the molecule, how does the Potency read?
**A.** The Potency was inconclusive: 4.47 µM [inhibitor, full curve, poor fit].
